Measured values reported in publication PMC6336889.
Results are given in words; binding and its absence hold for the method and conditions named. Binding seen in cells or lysates may run through a third protein. Some results given as binding are weak or reduced against the parent protein; the word gives no strength.

Protein sequences, listed by entry. Tags and fused reporters are not part of them. Residues count along the entry.
UniProt Q01638, residues 19-556: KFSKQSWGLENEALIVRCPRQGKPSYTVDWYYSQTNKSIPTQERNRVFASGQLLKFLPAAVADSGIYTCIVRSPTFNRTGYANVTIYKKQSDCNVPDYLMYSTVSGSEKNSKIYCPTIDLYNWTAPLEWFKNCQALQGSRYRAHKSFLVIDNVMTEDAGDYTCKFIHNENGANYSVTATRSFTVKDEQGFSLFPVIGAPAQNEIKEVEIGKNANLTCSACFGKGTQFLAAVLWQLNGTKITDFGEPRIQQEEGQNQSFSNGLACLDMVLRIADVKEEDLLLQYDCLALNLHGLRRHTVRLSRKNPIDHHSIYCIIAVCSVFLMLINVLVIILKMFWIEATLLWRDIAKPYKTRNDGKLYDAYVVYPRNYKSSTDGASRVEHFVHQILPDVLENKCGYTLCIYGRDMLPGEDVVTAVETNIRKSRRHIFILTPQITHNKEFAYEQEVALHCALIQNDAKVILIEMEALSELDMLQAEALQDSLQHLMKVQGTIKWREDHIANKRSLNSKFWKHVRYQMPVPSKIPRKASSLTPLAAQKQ

Target: Myc-HRAS (UniProt P01112)
Test: co-IP; HEK293 cells co-transfected with the tagged candidate and Myc-HRAS; whole cell lysates (RIPA buffer) immunoprecipitated with anti-Myc antibody; immunoblot

V5-IL1RL1 (from UniProt Q01638 19-556) was tested, and the binding was “binds”.
